Experimental data: PubChem BioAssay AID1259425 (University of Nebraska Medical Center, 2018)
The whole screen tested about 14,000 reagents; this is a random part of them. Not all columns of the deposit are shown. No sequences are given here. Not given: the time to read-out.

- Assay: 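Seek colon cancer weak points whose silencing resembles KSR1 loss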 (primary screen)
- Cells: HCT116 human colon cancer cells
- Knock-down reagent: siRNA pool against human genes, 50 nM siRNA
- Detection: 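After 50 nM siRNA pool, branched-DNA assay measures six marker transcripts per well, minus blank, normalised to the geometric mean of two housekeeping transcripts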
- Direction: BNIP3L mRNA: higher = more BNIP3L transcript after knockdown

Against CEL, the entry reads BNIP3L mRNA, set 1 = 0.0453.
Against LSM3, the entry reads BNIP3L mRNA, set 1 = 0.202.
INSL4 showed BNIP3L mRNA, set 1 = 0.0972.
After knock-down of CTSC the results were BNIP3L mRNA, set 1 = 0.0524.
After knock-down of NHS, the record shows BNIP3L mRNA, set 1 = 0.106.
Knock-down of C3orf52 resulted in: BNIP3L mRNA, set 1 = 0.107.
A4GNT showed BNIP3L mRNA, set 1 = 0.0897.
Against UQCRC2, the entry reads BNIP3L mRNA, set 1 = 0.0601.
For PTPN1, the values are BNIP3L mRNA, set 1 = 0.0288.
Silencing of CMKLR2 gave: BNIP3L mRNA, set 1 = 0.182.
Depletion of BEX3 resulted in: BNIP3L mRNA, set 1 = 0.117.
After knock-down of SLC67A1, the screen gave BNIP3L mRNA, set 1 = 0.0666.
Against CRAT, the values are BNIP3L mRNA, set 1 = 0.135.
For PPP3CC, the values are BNIP3L mRNA, set 1 = 0.0896.
MIGA2 gave BNIP3L mRNA, set 1 = 0.0405.
GJA1 showed BNIP3L mRNA, set 1 = 0.117.
PTTG1 gave BNIP3L mRNA, set 1 = 0.0642.
For GNPAT, the values are BNIP3L mRNA, set 1 = 0.0566.
For CITED2 the deposit lists BNIP3L mRNA, set 1 = 0.0246.

A run of entries from the list above, for reference:
PTTG1 → BNIP3L mRNA, set 1: 0.0642
GNPAT → BNIP3L mRNA, set 1: 0.0566
CITED2 → BNIP3L mRNA, set 1: 0.0246
